Assay results taken from patent US20060024239A1, “Persistent post-viral cough drug and treatment method” (priority 2004, published 2006).
At least one compound was matched to its structure with a doubt left.

Tested on: persistent post-viral cough
Test: Treatment of patients with persistent post-viral cough (case reports and the inventors' clinical experience)
Type: in vivo, human
Conditions: cigarette smoker, tid for five days
From the text: As opposed to what is found in the medical literature, in the usual patient that we have observed and treated for sub-acute or chronic cough after viral respiratory infection, evidence for post-nasal drip, sinusitis, asthma, or gastroesophageal reflux has been lacking. Physical examination of the nose, throat, sinuses, and chest has been unremarkable as have chest x-ray, and simple pulmonary function tests. Antihistamines and decongestants as might be used for post-nasal drip have proven disappointing and have rarely afforded relief of the persistent cough when tried. Antibiotic treatments likewise have been effective to alleviate cough only in rare instances. […] We have been surprised by the regularity with which this treatment has proven effective.
Because the respiratory tract is a continuous conduit, topical medications can be applied to the airways surface in aerosol form. The term “aerosol” as used herein is as conventionally defined to indicate either a liquid or solid particle suspended in gas. Many chemical entities in aerosol delivery devices, both liquid and solid, have been developed and marketed for treating respiratory disorders. These include aerosol medications for application to the nose or for inhalation through the mouth. […]

CCCC1O[C@@H]2C[C@H]3[C@@H]4CCC5=CC(=O)C=C[C@]5(C)[C@H]4[C@@H](O)C[C@]3(C)[C@]2(C(=O)CO)O1 (some centres unmarked) [Budesonide powder, Budesonide]
resolution of chest symptoms (productive cough over three weeks): promptly resolved
relapse or recurrence of cough (8 months of follow up): No relapse or recurrence of cough
